Data as given in PubChem BioAssay AID1224826 (NIAID, 2016).
This is a random part of about 17,000 reagents. About 1,110 of all reagents (6.6%) were called active. 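Active means lowered or raised reporter signal; replicate intensities are raw and not normalised per plate.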 The numbers tell different reagents against one gene apart. No sequences are given here.

- Screen: 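Knock-downs that raise or lower Tnf reporter signal after endotoxin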 (primary screen)
- Cells: RAW264.7 G9 macrophages from mouse bearing reporters for p65 (GFP) and the Tnf promoter (mCherry)
- Reagent: siRNA pool against mouse genes, 100 nM
- Timing: 16 h of LPS stimulation, after 2 days of siRNA transfection
- Conditions: bacterial lipopolysaccharide (Salmonella minnesota R595), 10 ng/ml
- Detection: 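Imaged Tnf reporter mCherry in nuclei, minus background, normalised per plate to the median and expressed as robust z-scores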
- Scale: Tnf reporter robust z-score: higher = stronger Tnf promoter reporter signal after LPS; Tnf reporter intensity: higher = stronger Tnf promoter reporter signal
- Rule for the call: 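a well counts as active at a score of -1.3 or below (Tlr4 knock-down control median) or above 3 (raised signal); controls and wells holding fewer than 50 cells are excluded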
- Meaning of the calls: active = Tnf reporter clearly lowered or raised; inactive = no clear change in Tnf reporter

The opening 3 records as a preview:
target | reagent no. | Tnf reporter robust z-score | fewer than 50 cells in well | Tnf reporter intensity, replicate 1 | Tnf reporter intensity, replicate 2 | call
Cnp (GeneID 12799) | 1 | 0.69 | enough cells in well | 140 | 303 | inactive
Stxbp4 (GeneID 20913) | 1 | 1.95 | enough cells in well | 132 | 196 | inactive
Stxbp4 (GeneID 20913) | 2 | 0.29 | enough cells in well | 218 | 138 | inactive

Main list, repeating the preview:
target | reagent no. | Tnf reporter robust z-score | fewer than 50 cells in well | Tnf reporter intensity, replicate 1 | Tnf reporter intensity, replicate 2 | call
Cnp (GeneID 12799) | 1 | 0.69 | enough cells in well | 140 | 303 | inactive
Stxbp4 (GeneID 20913) | 1 | 1.95 | enough cells in well | 132 | 196 | inactive
Stxbp4 (GeneID 20913) | 2 | 0.29 | enough cells in well | 218 | 138 | inactive
Ttr (GeneID 22139) | 1 | 0.01 | enough cells in well | 206 | 260 | inactive
Mettl4 (GeneID 76781) | 1 | -0.57 | enough cells in well | 110 | 155 | inactive
Selenop (GeneID 20363) | 1 | -0.3 | enough cells in well | 78.5 | 104 | inactive
Zfpm2 (GeneID 22762) | 1 | 1 | enough cells in well | 302 | 314 | inactive
Ccdc159 (GeneID 67119) | 1 | 0.4 | enough cells in well | 281 | 81.8 | inactive
Ihh (GeneID 16147) | 1 | -0.58 | enough cells in well | 186 | 157 | inactive
Sirt6 (GeneID 50721) | 1 | 2.17 | enough cells in well | 215 | 132 | inactive
Depdc7 (GeneID 211896) | 1 | 0.09 | enough cells in well | 185 | 161 | inactive
Bhlhb9 (GeneID 70237) | 1 | -0.44 | enough cells in well | 229 | 54.7 | inactive
Il17d (GeneID 239114) | 1 | -0.4 | enough cells in well | 155 | 121 | inactive
Il36b (GeneID 69677) | 1 | -0.59 | enough cells in well | 202 | 113 | inactive
St7l (GeneID 229681) | 1 | -0.13 | enough cells in well | 247 | 222 | inactive
Asb18 (GeneID 208372) | 1 | 2.91 | enough cells in well | 331 | 333 | inactive
Rpn2 (GeneID 20014) | 1 | -1.95 | enough cells in well | 51.3 | 36.2 | active
Ier5l (GeneID 72500) | 1 | 1.19 | enough cells in well | 336 | 103 | inactive
Smyd5 (GeneID 232187) | 1 | – | fewer than 50 cells per well; well left out of calls | 54.6 | 210 | inactive
BC023105 (GeneID 667597) | 1 | 0.6 | enough cells in well | 195 | 310 | inactive
Serpina7 (GeneID 331535) | 1 | 1.01 | enough cells in well | 190 | 223 | inactive
Cd8b1 (GeneID 12526) | 1 | -0.18 | enough cells in well | 199 | 226 | inactive
4930412C18Rik (GeneID 320152) | 1 | 0.03 | enough cells in well | 167 | 158 | inactive
Haus3 (GeneID 231123) | 1 | 0.8 | enough cells in well | 277 | 246 | inactive
C4b (GeneID 12268) | 1 | 0.83 | enough cells in well | 212 | 171 | inactive
Pmepa1 (GeneID 65112) | 1 | – | fewer than 50 cells per well; well left out of calls | 81.8 | 32.8 | inactive
Arpc1b (GeneID 11867) | 1 | -0.98 | enough cells in well | 124 | 101 | inactive
Nfya (GeneID 18044) | 1 | -0.91 | enough cells in well | 183 | 113 | inactive
Sptbn4 (GeneID 80297) | 1 | 3.11 | enough cells in well | 251 | 161 | active
Smarca5 (GeneID 93762) | 1 | -0.76 | enough cells in well | 212 | 157 | inactive
Gfi1b (GeneID 14582) | 1 | -1.07 | enough cells in well | 196 | 122 | inactive
1700030K09Rik (GeneID 72254) | 1 | – | fewer than 50 cells per well; well left out of calls | 219 | 128 | inactive
Or55b4 (GeneID 257926) | 1 | -0.47 | enough cells in well | 116 | 120 | inactive
Or2r3 (GeneID 258989) | 1 | -0.05 | enough cells in well | 67.5 | 154 | inactive
Ctsh (GeneID 13036) | 1 | 0.13 | enough cells in well | 258 | 200 | inactive
Anxa9 (GeneID 71790) | 1 | – | fewer than 50 cells per well; well left out of calls | 75.1 | 96.1 | inactive
Mrps12 (GeneID 24030) | 1 | 0.61 | enough cells in well | 265 | 133 | inactive
Calcb (GeneID 116903) | 1 | -0.34 | enough cells in well | 160 | 136 | inactive
Or51e2 (GeneID 170639) | 1 | 2.26 | enough cells in well | 431 | 169 | inactive
Eif3k (GeneID 73830) | 1 | 2.29 | enough cells in well | 341 | 165 | inactive
S100a11 (GeneID 20195) | 1 | 0.11 | enough cells in well | 256 | 256 | inactive
Dab2 (GeneID 13132) | 1 | 1.43 | enough cells in well | 339 | 343 | inactive
Dab2 (GeneID 13132) | 2 | 0.16 | enough cells in well | 204 | 151 | inactive
Wwp1 (GeneID 107568) | 1 | – | fewer than 50 cells per well; well left out of calls | 120 | 120 | inactive
Klf12 (GeneID 16597) | 1 | 1.69 | enough cells in well | 402 | 217 | inactive
Sys1 (GeneID 66460) | 1 | -0.28 | enough cells in well | 232 | 61.9 | inactive
Tspan6 (GeneID 56496) | 1 | 2.6 | enough cells in well | 222 | 174 | inactive
Adgrg3 (GeneID 54672) | 1 | -0.1 | enough cells in well | 196 | 307 | inactive
Micu1 (GeneID 216001) | 1 | 0.51 | enough cells in well | 160 | 252 | inactive
1810024B03Rik (GeneID 329509) | 1 | – | fewer than 50 cells per well; well left out of calls | 187 | 93.9 | inactive
Trmt9b (GeneID 319582) | 1 | 1.59 | enough cells in well | 359 | 203 | inactive
Vwa1 (GeneID 246228) | 1 | 2.07 | enough cells in well | 377 | 115 | inactive
Cep120 (GeneID 225523) | 1 | 0.78 | enough cells in well | 259 | 166 | inactive
Lhx9 (GeneID 16876) | 1 | 1.43 | enough cells in well | 288 | 212 | inactive
Pnma2 (GeneID 239157) | 1 | – | fewer than 50 cells per well; well left out of calls | 80.6 | 54.5 | inactive
Rad52 (GeneID 19365) | 1 | 0.7 | enough cells in well | 368 | 263 | inactive
Dmd (GeneID 13405) | 1 | -0.09 | enough cells in well | 224 | 200 | inactive
Hsd17b2 (GeneID 15486) | 1 | 1.51 | enough cells in well | 344 | 297 | inactive
